PubChem BioAssay AID652272 – Drosophila RNAi Screening Center | 2013
The screen tested about 21,000 reagents; below is an unselected part of those that have a named target and a result. Over the whole deposit, 503 (2.4%) were called active. 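Raw plate light values, not normalised; calls rest on replicate z-scores that were not deposited; hits include reporter decreases as well as increases.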 Entries without a mark were called inactive. The numbers tell different reagents against one gene apart. Not stated in the record: the amount of reagent, the time to read-out.

Aim: 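Finding fly genes that regulate Hedgehog signal transduction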 (primary screen)
Cell system: Drosophila clone 8 (Cl8) cells
Reagents: long dsRNA against Drosophila genes
Measured: 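Firefly light from a Hedgehog-responsive ptc promoter reporter and Renilla reference light, both read on a plate reader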
Reading the numbers: firefly Hh reporter signal: higher = more ptc reporter light; Renilla reference signal: higher = more Renilla control light
Rule for the call: 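Hit when the z-score averaged over two replicates is under -2 or over +3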
Calls: active = hit: reporter lowered or raised; inactive = not a hit

Depletion of FucT6 resulted in: firefly Hh reporter signal, replicate 1 = 74455; firefly Hh reporter signal, replicate 2 = 66282; Renilla reference signal, replicate 1 = 2008; Renilla reference signal, replicate 2 = 1590. CG34214 showed firefly Hh reporter signal, replicate 1 = 1.19e5; firefly Hh reporter signal, replicate 2 = 62860; Renilla reference signal, replicate 1 = 3970; Renilla reference signal, replicate 2 = 2112. Depletion of htk #1 resulted in: firefly Hh reporter signal, replicate 1 = 55259; firefly Hh reporter signal, replicate 2 = 1.62e5; Renilla reference signal, replicate 1 = 1018; Renilla reference signal, replicate 2 = 6826. For htk #2, the entry reads firefly Hh reporter signal, replicate 1 = 1.50e5; firefly Hh reporter signal, replicate 2 = 1.23e5; Renilla reference signal, replicate 1 = 3213; Renilla reference signal, replicate 2 = 3296.

Already shown: entries from further up.
CG34214: firefly Hh reporter signal, replicate 1 = 1.19e5; firefly Hh reporter signal, replicate 2 = 62860; Renilla reference signal, replicate 1 = 3970; Renilla reference signal, replicate 2 = 2112
htk #1: firefly Hh reporter signal, replicate 1 = 55259; firefly Hh reporter signal, replicate 2 = 1.62e5; Renilla reference signal, replicate 1 = 1018; Renilla reference signal, replicate 2 = 6826

Continued.
For Nubpl, the values are firefly Hh reporter signal, replicate 1 = 60788; firefly Hh reporter signal, replicate 2 = 47786; Renilla reference signal, replicate 1 = 2272; Renilla reference signal, replicate 2 = 1836. beta'COP gave firefly Hh reporter signal, replicate 1 = 21393 (active); firefly Hh reporter signal, replicate 2 = 35676; Renilla reference signal, replicate 1 = 1612; Renilla reference signal, replicate 2 = 2411. Depletion of CG14736 gave: firefly Hh reporter signal, replicate 1 = 88176; firefly Hh reporter signal, replicate 2 = 1.70e5; Renilla reference signal, replicate 1 = 2080; Renilla reference signal, replicate 2 = 4690. Dsor1 gave firefly Hh reporter signal, replicate 1 = 1.02e5; firefly Hh reporter signal, replicate 2 = 79840; Renilla reference signal, replicate 1 = 2224; Renilla reference signal, replicate 2 = 1756. nec showed firefly Hh reporter signal, replicate 1 = 99721; firefly Hh reporter signal, replicate 2 = 46596; Renilla reference signal, replicate 1 = 2323; Renilla reference signal, replicate 2 = 3778. Shc showed firefly Hh reporter signal, replicate 1 = 31088; firefly Hh reporter signal, replicate 2 = 43194; firefly Hh reporter signal, replicate 3 = 49868; Renilla reference signal, replicate 1 = 3229; Renilla reference signal, replicate 2 = 3332.

Against bdwf the deposit lists firefly Hh reporter signal, replicate 1 = 1.04e5; firefly Hh reporter signal, replicate 2 = 72032; Renilla reference signal, replicate 1 = 4210; Renilla reference signal, replicate 2 = 2898. For ATPsynE, the entry reads firefly Hh reporter signal, replicate 1 = 1.61e5; firefly Hh reporter signal, replicate 2 = 81948; Renilla reference signal, replicate 1 = 5824; Renilla reference signal, replicate 2 = 3644.
